Molecular target: T1, Transferrin receptor 1 (UniProt ID: P02786) (UniProt P02786 1-760)
T1 construct: whole, on cells; Endogenous expression, not transfected cells; also called protein Transferrin receptor 1
Assay: confocal microscopy and flow cytometry of MCF7 cells (high Transferrin receptor 1) after 2 h with fluorescent adiposomes carrying TRTA-P33, against adiposomes without the peptide

Protein sequences, listed by entry. Tags and fused reporters are not part of them.
UniProt P02786, whole entry: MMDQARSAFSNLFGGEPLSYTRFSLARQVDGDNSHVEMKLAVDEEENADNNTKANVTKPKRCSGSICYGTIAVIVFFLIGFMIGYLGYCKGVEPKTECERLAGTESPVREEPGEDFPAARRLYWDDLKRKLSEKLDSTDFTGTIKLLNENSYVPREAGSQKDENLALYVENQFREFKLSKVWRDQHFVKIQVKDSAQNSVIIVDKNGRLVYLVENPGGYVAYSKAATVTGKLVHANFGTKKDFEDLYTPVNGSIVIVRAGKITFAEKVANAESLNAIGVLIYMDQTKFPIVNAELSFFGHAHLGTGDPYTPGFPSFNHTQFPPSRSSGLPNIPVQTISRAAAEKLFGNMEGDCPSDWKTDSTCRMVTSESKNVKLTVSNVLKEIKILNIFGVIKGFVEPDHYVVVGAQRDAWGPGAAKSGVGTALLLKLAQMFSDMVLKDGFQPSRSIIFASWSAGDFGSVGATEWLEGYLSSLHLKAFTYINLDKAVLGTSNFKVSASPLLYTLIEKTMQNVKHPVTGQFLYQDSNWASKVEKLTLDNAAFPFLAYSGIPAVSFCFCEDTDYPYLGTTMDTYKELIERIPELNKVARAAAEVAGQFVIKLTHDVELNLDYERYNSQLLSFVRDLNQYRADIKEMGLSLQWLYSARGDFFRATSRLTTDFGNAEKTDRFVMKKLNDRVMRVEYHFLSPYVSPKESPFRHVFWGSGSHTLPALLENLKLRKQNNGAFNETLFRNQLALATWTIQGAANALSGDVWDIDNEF

B1: adiposome targeting peptide TRTA-P33 (Transferrin receptor 1-targeting adiposome peptide 33) (peptide)
peptide: MGIFSRFADIVNANINALLEKTHRPPMWSPVWP
notes: Chemically synthesized; No linker; In the assay it was adsorbed non-covalently to the surface of fluorescently labeled adiposomes (TRTA adiposomes); also called PspA-H1-Trf-B
binding result: binds

Reference: patent publication EP4810522A1 (WeCareLife Biotech Co., Ltd., dated 2026)
